# Test results published in paper PMC11292009, “Mapping protein binding sites by photoreactive fragment pharmacophores” (Communications Chemistry, 2024).
# “And” between values parts separate entries of the source, which are not always exact repeats. Equal values may be shown once. Further values from the same series stand in other lists.
# How the values were obtained:
# [1] = system: T1, Kras G12D protein / SOS1 exchange domain; assay: Kras-SOS exchange assay (MANT-GDP); type: biochemical; settings: for Relative fluorescence intensity: PhP072 500 uM, no irradiation; for normalized signal, Kras-SOS exchange (Figure 4c PhP072 irradiation): Php072 500 uM
# T1 construct: Cytoskeleton, Inc. (SOS1 exchange domain only) GE02
# Procedure: MANT-GDP loading assay: Kras^G12D protein was first buffer exchanged into low magnesium buffer (20 mM HEPES-NaOH (pH 7.5), 50 mM NaCl, 0.5 mM MgCl2) using a NAP5 column (catalog no.: 17-0583-1, Cytiva). The proteins were then incubated with 20-fold molar excess of N-methylanthraniloyl (MANT)-GDP (catalog no.: 69244, Sigma-Aldrich) in loading buffer (50 mM NaCl, 20 mM HEPES-NaOH [pH 7.5], 0.5 mM MgCl2, 10 mM EDTA, and 1 mM Dithiothreitol (DTT)) in a total volume of 200 μL at 20 °C for 90 min. The reaction was stopped by adding MgCl2 to a final concentration of 10 mM, then incubated at 20 °C for 30 min. The unbound MANT-GDP was removed using the NAP-5 column equilibrated with nucleotide exchange buffer (40 mM HEPES-NaOH (pH 7.5), 50 mM NaCl, 10 mM MgCl2, 2 mM DTT).
# MANT-GDP exchange assay: First the MANT-GDP bound Kras G12D protein (in a final 1 μM molar concentration) was preincubated with the inhibitor molecules for 60 min. After the preincubation the samples were exposed to UV light for 10 min with a wavelength of 366 nm. The UV-treated MANT-GDP Kras-inhibitor mix was loaded into a black 384 well microplate. The nucleotide exchange reaction was initiated by adding 100 fold molar excess of GppNHp (catalog no.: G0635, Sigma-Aldrich), a non-hydrolyzable GTP analog and the SOS1 exchange domain (catalog no.: GE02, Cytoskeleton, Inc.) protein in 0.5 μM final concentration. The change in fluorescence intensity was measured every 30 s in room temperature for 60 min on an EnSpire plate reader (PerkinElmer, Inc.). The measured fluorescence values were fitted to a single exponential function by using GraphPad Prism 8 software.
# STAT5B NTD = target: T2, STAT5B NTD (Homo sapiens, UniProt P51692); assay: Microscale thermophoresis (MST), without irradiation; type: binding; settings: for Fnorm: MST raw data, PhP097 concentration [log
# T2 construct: His-SUMO (N, cleaved yes); made in house; host or cells: E. coli BL21 RILP
# T2 sequence (P51692 1-123): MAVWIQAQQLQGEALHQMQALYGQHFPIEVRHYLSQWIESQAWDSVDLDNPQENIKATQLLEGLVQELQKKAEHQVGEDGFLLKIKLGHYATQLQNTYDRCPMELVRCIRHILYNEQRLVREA
# Procedure: For the microscale thermophoresis (MST) studies, we prepared 16 two-fold serial dilutions of compounds starting from 500 μM. Titration series were prepared that contained 10 μL of compounds’ solutions of varying concentrations and 10 μL RED-NHS 2nd Generation labeled STAT5B NTD with a concentration of 168 nM for compound PhP097, and a concentration of 84 nM for compound PhP065. Final buffer composition included 1X PBS containing 0.5% DMSO. All measurements were taken in Premium Coated Capillaries on a Monolith NT.115 instrument (NanoTemper Technologies, Munich, Germany) using 80% infrared laser power for compound PhP097, 60% infrared laser power for compound PhP065, and an LED excitation source with λ = 650 nm at a temperature of 25 °C. Results were expressed as the mean of two separate experiments, with three technical replicates each. GraphPad Prism 9.5.1 software was used to fit the data and to determine the KD values.
compound,measurement,setting,value
"Cc1ncc(CO)c(CNC(=O)CCC2(C)N=N2)c1O [PhP072, Cc1ncc(CO)c(c1O)CNC(=O)CCC2(C)N=N2]",Relative fluorescence intensity,[1]; 150 sec,0.9388
same,Relative fluorescence intensity,[1]; 180 sec,0.9631
same,Relative fluorescence intensity,[1]; 2610 sec,0.691
same,Relative fluorescence intensity,[1]; 2640 sec,0.7138
same,Relative fluorescence intensity,[1]; 2670 sec,0.7054
same,Relative fluorescence intensity,[1]; 2700 sec,0.71
same,Relative fluorescence intensity,[1]; 2730 sec,0.6899
same,Relative fluorescence intensity,[1]; 2760 sec,0.6818
same,Relative fluorescence intensity,[1]; 2790 sec,0.6957
same,Relative fluorescence intensity,[1]; 2820 sec,0.6756
same,Relative fluorescence intensity,[1]; 2850 sec,0.7031
same,Relative fluorescence intensity,[1]; 2880 sec,0.6673
same,"normalized signal, Kras-SOS exchange (Figure 4c PhP072 irradiation)",[1]; time 150 sec,0.9882
same,"normalized signal, Kras-SOS exchange (Figure 4c PhP072 irradiation)",[1]; time 180 sec,0.9892
same,"normalized signal, Kras-SOS exchange (Figure 4c PhP072 irradiation)",[1]; time 2610 sec,0.9202
same,"normalized signal, Kras-SOS exchange (Figure 4c PhP072 irradiation)",[1]; time 2640 sec,0.9444
same,"normalized signal, Kras-SOS exchange (Figure 4c PhP072 irradiation)",[1]; time 2670 sec,0.9395
same,"normalized signal, Kras-SOS exchange (Figure 4c PhP072 irradiation)",[1]; time 2700 sec,0.935
same,"normalized signal, Kras-SOS exchange (Figure 4c PhP072 irradiation)",[1]; time 2730 sec,0.9162
same,"normalized signal, Kras-SOS exchange (Figure 4c PhP072 irradiation)",[1]; time 2760 sec,0.9142
same,"normalized signal, Kras-SOS exchange (Figure 4c PhP072 irradiation)",[1]; time 2790 sec,0.921
same,"normalized signal, Kras-SOS exchange (Figure 4c PhP072 irradiation)",[1]; time 2820 sec,0.916
same,"normalized signal, Kras-SOS exchange (Figure 4c PhP072 irradiation)",[1]; time 2850 sec,0.9204
same,"normalized signal, Kras-SOS exchange (Figure 4c PhP072 irradiation)",[1]; time 2880 sec,0.8998
"CC1(CCC(=O)NCCc2csc(-c3ccccc3)n2)N=N1 [PhP097, N1=NC1(C)CCC(=O)NCCc2csc(n2)-c3ccccc3]",ΔFnorm,"STAT5B NTD; Fnorm - Unbound value, Php097 concentration [log, µM] -1.5157, runs/replicates",-0.1751 ‰ and 5.414 ‰
same,Fnorm,"STAT5B NTD; µM] 1.19382, runs/replicates",710.349 ‰ and 709.9 ‰ and 712.145 ‰ and 706.832 ‰ and 707.716 ‰ and 708.776 ‰
same,Fnorm,"STAT5B NTD; µM] 1.49485, runs/replicates",709.995 ‰ and 707.215 ‰ and 707.437 ‰ and 704.024 ‰ and 708.603 ‰ and 706.942 ‰
same,Fnorm,"STAT5B NTD; µM] 1.79588, runs/replicates",705.853 ‰ and 705.387 ‰ and 706.853 ‰ and 700.507 ‰ and 704.962 ‰ and 701.944 ‰
same,Fnorm,"STAT5B NTD; µM] 2.09691, runs/replicates",699.67 ‰ and 700.13 ‰ and 702.445 ‰ and 701.209 ‰ and 707.631 ‰ and 701.304 ‰
same,Fnorm,"STAT5B NTD; µM] 2.39794, runs/replicates",712.652 ‰ and 711.955 ‰ and 714.108 ‰ and 701.531 ‰ and 700.302 ‰ and 701.524 ‰
